The exact form of at least one protein or probe is not confirmed.
Legend:
[1] = system: Immunoglobulin E kappa (recombinant, clone AbD18705_hIgE, HCA190) (human); experiment: microchip free-flow electrophoresis, single-molecule counting (DigitISA); conditions: 40 nM IgE, 50 pM aptamer, complex 21.7 pM; 10 mM HEPES pH 7.4, 0.05% Tween-20, room temperature (IgE; fibrils and exosomes same buffer); FUS: 50 mM Tris-HCl pH 7.4, 25 mM KCl, 0.02% Tween-20, on-chip desalting; commercial protein; label: 5'-Atto488; folded or branched DNA
[2] = molecular target: alpha-synuclein fibrils (human) (UniProt P37840); experiment: as above; conditions: 10 nM aptamer, bound probe 18.7 pM; 10 mM HEPES pH 7.4, 0.05% Tween-20, room temperature (IgE; fibrils and exosomes same buffer); FUS: 50 mM Tris-HCl pH 7.4, 25 mM KCl, 0.02% Tween-20, on-chip desalting; recombinant protein; label: 5'-Alexa488; folded or branched DNA
[3] = molecular target: alpha-synuclein fibrils (human) (UniProt P37840); experiment: binding assay; conditions: 10 mM HEPES pH 7.4, 0.05% Tween-20, room temperature (IgE; fibrils and exosomes same buffer); FUS: 50 mM Tris-HCl pH 7.4, 25 mM KCl, 0.02% Tween-20, on-chip desalting; recombinant protein; label: 5'-Alexa488; folded or branched DNA
[4] = molecular target: alpha-synuclein oligomers (human) (UniProt P37840); experiment: binding assay; conditions: 10 mM HEPES pH 7.4, 0.05% Tween-20, room temperature (IgE; fibrils and exosomes same buffer); FUS: 50 mM Tris-HCl pH 7.4, 25 mM KCl, 0.02% Tween-20, on-chip desalting; recombinant protein; label: 5'-Alexa488; folded or branched DNA

## TGGGGCACGTTTATCCGTCCCTCCTAGTGGCGTGCCCC [IgE aptamer]
[1]
  binding result: binds

## TTTTGCCTGTGGTGTTGGGGCGGGTGCG [T-SO508 aptamer]
[2]
  binding result: binds
[3]
  binding result: binds

## TTTTGGGTCGGCTGTCCGTGGGTGGGGA [T-SO606 aptamer]
[4]
  binding result: binds
